Experimental data published in PubChem BioAssay AID1259415 (National Center for Advancing Translational Sciences (NCATS), 2018).
Where “and” joins values, the source holds several entries; their conditions need not be identical. Equal entries are not always repeated. Out of some 410,000 compounds screened, about 18,000 (4.4%) were called active. The inconclusive results got no clear call from the source; some entries with a clear call stand among them for comparison. Rule as the data show it: active = activity change below about -60%; inconclusive = no clear call, values can overlap the other calls; inactive = above about -39%.

Experiment: qHTS Assay for inhibitors of the human cytomegalovirus (HCMV)
Details: HFF cells, HCMV-luciferase reporter, 72 h; at 57.5 µM; stronger effect = lower value
In short: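 Luciferase read-out from HCMV-luciferase-infected HFFs (MOI 1 PFU/cell) 72 h post infection at 37C; compounds added after 16 h cell attachment; activity normalized between buffer-only basal and Salinomycin (10uM) inhibitor controls.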
% is scaled to controls: 0 for no effect and ±100 for the full control effect.

Structure (SMILES)	activity change, negative = inhibition
CCOc1cc(/C=C2/C(=O)ON=C2C)ccc1OCc1ccccc1F	inconclusive: -40.1%
Cc1onc(-c2ccccc2Cl)c1C(=O)N1CC(C)CC(C)C1 (stereo unspecified)	inconclusive: -54.3%
Cn1c(/C(C#N)=C(\O)c2cccc(F)c2)nc2ccccc21	inactive: 140%
NC[C@@H]1O[C@H](C23CC4CC(CC(C4)C2)C3)Cc2c1ccc(O)c2O	inconclusive: -45.8%
O=[N+]([O-])c1ccc(N2CCN(c3cccc(Cl)c3)CC2)nc1	inconclusive: -44.1%
CCOc1cc(C=C(C#N)C#N)ccc1Oc1ccc([N+](=O)[O-])cn1	inactive: 10.7%
COc1ccc(-n2nc([N+](=O)[O-])c(=NCCC3=CCCCC3)n2O)cc1	inconclusive: -44.1%
CC(=O)Nc1ccc(OCC(O)Cn2ccnc2C)cc1 (stereo unspecified)	inconclusive: -44.8%
COc1ccc(NC(=O)C2CCN(S(=O)(=O)c3ccc(Cl)c(C(F)(F)F)c3)CC2)cn1	inactive: -28.6%
CCOC(=O)N/N=C/C(Cl)=C/c1ccccc1	inconclusive: -40%
Cc1cc(OCC(=O)N2CCc3ccccc3C2)c2c(-c3ccccc3)cc(=O)oc2c1	inconclusive: -41.1%
CCN(CC(=O)Nc1c(F)cccc1F)C(=O)CSCC(=O)Nc1ccc(OC)cc1	inconclusive: -42.5%
Cn1nnnc1SCC(=O)Nc1ncc(Cl)cc1Cl	inactive: -7.02%
NC(=O)c1ccc(N=Nc2c(-c3ccccc3)[nH]n(-c3ccccc3)c2=O)cc1	inconclusive: -42.2%
O=C(CSc1ccccc1C(=O)N1CCN(c2ccccc2)CC1)N1CCCC1	inconclusive: -40%
Cc1cc(C)n2c(Nc3ccc4c(c3)OCCO4)c(-c3ccccc3)nc2n1	inactive: -23.7% and inactive: 33.2%
Cc1c(C(=O)NCc2ccc3c(c2)OCCO3)sc(=O)n1Cc1ccc2c(c1)OCO2	inconclusive: -46.5%
O=C1Nc2c(Cl)cc(Cl)cc2C1=O	inactive: 36%
CC(=O)c1ccc(NC(=O)CSc2nnc(-c3ccncc3)n2-c2ccccc2)cc1	inconclusive: -42%
CCOC(=O)c1nn(-c2ccccc2)c(C#N)c1NC(=O)c1nn(CC)cc1Br	inactive: -27.4%
COc1cccc(/C=N/NC(=O)CNC(=O)c2ccc(S(=O)(=O)N3CCCC3)cc2)c1OC	inconclusive: -47.6%
C/C(CC(=O)Nc1cc(C)ccn1)=N\NC(=O)c1ccncc1	inactive: -26.9%

Random excerpt: three entries already listed, in no set order.
Structure (SMILES)	activity change, negative = inhibition
CCOc1cc(C=C(C#N)C#N)ccc1Oc1ccc([N+](=O)[O-])cn1	inactive: 10.7%
CC(=O)c1ccc(NC(=O)CSc2nnc(-c3ccncc3)n2-c2ccccc2)cc1	inconclusive: -42%
NC[C@@H]1O[C@H](C23CC4CC(CC(C4)C2)C3)Cc2c1ccc(O)c2O	inconclusive: -45.8%

Quoted from the listing.
Under activity change, negative = inhibition, Cn1c(/C(C#N)=C(\O)c2cccc(F)c2)nc2ccccc21 reads inactive: 140%
Under activity change, negative = inhibition, CCOC(=O)c1nn(-c2ccccc2)c(C#N)c1NC(=O)c1nn(CC)cc1Br reads inactive: -27.4%
Under activity change, negative = inhibition, CCOc1cc(C=C(C#N)C#N)ccc1Oc1ccc([N+](=O)[O-])cn1 reads inactive: 10.7%

Next results.

Structure (SMILES)	activity change, negative = inhibition
CN(C)CCC(c1ccc(Br)cc1)c1ccccn1 (stereo unspecified)	inconclusive: -41.7% and inconclusive: -52.2%
Cc1ccc2nc(SCC(=O)Nc3c(C)n(C)n(-c4ccccc4)c3=O)[nH]c2c1	inconclusive: -40.3%
COc1cccc2cc(C(=O)C3=C(O)C(=O)N(CCN(C)C)C3c3ccc(Cl)cc3)oc12 (stereo unspecified)	inconclusive: -45.6%
CC(=O)O[C@H]1C[C@@H]2OC3C=C(C)CCC3(C)[C@@]1(C)[C@@]21CO1 (stereo partly specified)	active: -98.2%
C=CCOC(=O)C(C#N)c1nc2ccccc2nc1N1CCC(C(=O)OCC)CC1 (stereo unspecified)	inactive: -9.69%
O=[N+]([O-])c1ccc(S(=O)(=O)Nc2ccc(-c3csc(-c4ccccc4)n3)cc2)cc1	inconclusive: -54.3%
Cc1ccc(C2=NN(C(=O)C3CCCO3)C(c3ccco3)C2)cc1 (stereo unspecified)	inconclusive: -42.6%
Cc1ccc(S(=O)(=O)c2cc(N3CCOCC3)nc(-c3ccccc3)n2)cc1	inactive: 4.1%
Cc1cccc(/C=C/C(=O)c2cc(Br)ccc(=O)c2O)c1	active: -104%
O=C(Nc1ccccc1)c1oc2ccccc2c1NC(=O)C1CC1	inconclusive: -45.3%
Cn1cnnc1Sc1ccc(C(=O)NCCC(c2ccccc2)c2ccccc2)cc1[N+](=O)[O-]	inconclusive: -42%
COc1ccc(S(=O)(=O)N2CCN(Cc3cc(=O)n4ccccc4n3)CC2)cc1	inactive: -1.15%
COc1ccc(Nc2cc(C)nc3ccccc23)cc1	inconclusive: -46.7%
CCOC(=O)N1CCN(c2ccc(S(=O)(=O)N3CCOCC3)cc2[N+](=O)[O-])CC1	inactive: -11.2%
CCc1ccccc1N(CC)C(=O)C(=O)Nc1ccc2nc3n(c(=O)c2c1)CCCCC3	inactive: -27.3%
O=C(Nc1cccc(-n2cnnn2)c1)c1ccc(C(F)(F)F)cc1	inconclusive: -51.3%
CSc1ccccc1NC(=O)Nc1cccc(F)c1	inconclusive: -46.6%
CC(=O)Nc1ccc(S(=O)(=O)N[C@@H](C)C(=O)OCC(=O)Nc2ccc3c(c2)OCCO3)cc1	inactive: 21.5%
O=C1/C(=C/c2cccnc2)SC(=S)N1CCc1ccccc1	active: -71.2%
Cn1c2c(c(=O)n(C)c1=O)C(c1ccccc1C(F)(F)F)CC(=O)N2 (stereo unspecified)	inactive: -25.6%
Cc1ccc(-c2cc3onc(-c4ccccc4)c3c(=O)n2C)cc1	active: -70.8%
COC(=O)c1ccc(S(=O)(=O)NNC(=O)COc2ccc(C)cc2)cc1	inactive: 2.65%

Structure (SMILES)	activity change, negative = inhibition
CCOC(=O)N1C(=O)c2cc(OC)ccc2S1(=O)=O	inconclusive: -43.4%
O=C(CNc1cccc(Cl)c1)NNC(=S)NCc1ccccc1	inconclusive: -52.9%
Cc1ccc(C(=O)CSc2ncnc3sc4c(c23)CCC(C)C4)cc1 (stereo unspecified)	active: -99.4%
O=C(Nc1ccc(S(=O)(=O)N2CCCC2)cc1)c1ccc(OCC2CCCO2)cc1 (stereo unspecified)	active: -87.8%
CC(=O)C1CCC2C3C(N4CC4)CC4=CC(=O)CCC4(C)C3CCC12C (stereo unspecified)	inconclusive: -43.2%
CC(NC(=O)/C(C#N)=C/c1ccc(Cl)c([N+](=O)[O-])c1)c1ccccc1 (stereo unspecified)	active: -99.5%
CN(C)c1ccc(NS(=O)(=O)c2ccc(-c3csnn3)cc2)cc1	active: -65.5%
CCOC(=O)N1CCC(N(C(=O)Nc2ccc(Cl)c(Cl)c2)C(C)CC)CC1 (stereo unspecified)	inconclusive: -46.3%
CCN(CC)c1ccc(C(=O)NNC(=O)CCc2nc3ccccc3c(=O)[nH]2)cc1	active: -64.9%
Cc1ccc(N(C(=O)Cn2nnc(-c3ccccc3)n2)C(C(=O)NC2CCCCC2)c2ccccn2)cc1C (stereo unspecified)	inconclusive: -46.3%
CCNC(=S)N/N=C(\C)c1ccc2ccccc2c1OC(F)F	inactive: -33%
Oc1c(Cl)cc(Cl)c2cccnc12	active: -98.5%
c1ccc(-c2ccc(C(c3ccccc3)n3ccnc3)cc2)cc1 (stereo unspecified)	inactive: 2.01%
Cc1ccc(NC(=O)CSc2nnc(-c3cc4occc4n3C)n2-c2ccccc2C)c(C)c1	inactive: -16.1%
COc1ccc(C(=O)C[n+]2ccc(N)c(C)c2C)cc1	active: -93.4%
O=C(NCc1cccnc1)c1ccc(-c2cc3ccccc3oc2=O)cc1	active: -66.1%
FC(F)(F)c1cccc(N2CCN(c3nc4ccccc4n4cnnc34)CC2)c1	inconclusive: -48.3%
CC12CCC(C(NC(=S)NN)C1=O)C2(C)C (stereo unspecified)	inactive: 3.45%
O=C(NC(=S)Nc1ccc(Cc2ccncc2)cc1)c1ccccc1	inconclusive: -41.5%
Cc1ccc(C(=O)N2CCN(Cc3ccc4c(c3)OCO4)CC2)cc1S(=O)(=O)N1CCOCC1	inconclusive: -43.6%
O=C(NCc1ccco1)c1ccc(-c2csnn2)cc1	inactive: -7.73%
O=C(c1cc(-c2cccs2)nc2ccccc12)N1CCN(c2ccccc2O)CC1	inactive: 9.43%

Structure (SMILES)	activity change, negative = inhibition
CCOC(=O)[C@]12CCCC=C1N(Cc1ccco1)C(=O)[C@H](CC(=O)N1CCSCC1)C2	active: -81.6%
CCn1c(-c2ccccc2Cl)nn(CC(=O)Nc2ccccc2C)c1=S	inactive: 55.6%
Nc1c(C(=O)NCCc2ccc(Cl)cc2)sc2ccc(S(=O)(=O)N3CCCCC3)cc12	inconclusive: -55.4%
CCS(=O)(=O)NCCc1sc2nc(-c3ccc(OC)cc3)nn2c1C	inconclusive: -56%
C[n+]1cccc(C(=O)NNC(=O)C23CC4CC(CC(C4)C2)C3)c1	inconclusive: -52.3%
Cc1cccc(CN2CCN(C3CN(Cc4cn(Cc5ccc(F)cc5)nn4)S(=O)(=O)C3)CC2)c1 (stereo unspecified)	inconclusive: -42.4%
CCC(C)/C(C)=N/Nc1ccc(S(N)(=O)=O)cc1[N+](=O)[O-] (stereo unspecified)	inconclusive: -53.4%
CCc1cc(=O)oc2cc(C)cc(OC(C)C(=O)NCCCN3CCCC3=O)c12 (stereo unspecified)	inconclusive: -51.3%
Cc1cc(C)c2oc(C(=O)NCCc3ccc(S(N)(=O)=O)cc3)cc(=O)c2c1	inconclusive: -44.1%
CC(=C/c1ccccc1)/C=N/NC(=O)c1ccccn1	inactive: 6.64%
CCn1c(NCc2ccccc2NS(=O)(=O)c2ccc(C)cc2)nc2ccccc21	inactive: 35.2%
CCCCCCn1c(O)c(C(C)=NC)c(=O)[nH]c1=O	inactive: 23.7%
O=c1[nH]ncc2c3ccccc3n(Cc3ccc(F)cc3)c12	inconclusive: -52.1%
O=C1CN(C(=O)c2cccc(Br)c2)C(c2ccccc2)c2cc(Cl)ccc2N1 (stereo unspecified)	active: -63.1%
COc1ccc(S(=O)(=O)N2CCC3(CC2)OCCN3S(=O)(=O)c2c(C)cc(C)cc2C)cc1	inconclusive: -42.5%
CC(=O)c1sc(N/N=C2\CC3CCC2(C)C3(C)C)nc1C (stereo unspecified)	inactive: -29%
CC(=O)N(CN1C(=O)C2C3C=CC(C3)C2C1=O)c1cccc(Cl)c1 (stereo unspecified)	inconclusive: -47%
COc1ccc2c(c1)C(NS(=O)(=O)OCC(Cl)(Cl)Cl)CCC2 (stereo unspecified)	inactive: -21%
COc1cc(/C=C/C(=O)/C=C(O)/C=C/c2ccc(O)c(OC)c2)ccc1O	active: -67.4%
COC(=O)c1c(-c2ccc(Cl)cc2)noc1N1CCN(c2ccccc2F)CC1	inactive: -3.19%
